Consider 4 molecules from US20250043001A1.

Chains of the proteins cited; added tags and fusions are not shown. Residues count along the entry.
UniProt P31997, residues 35-320: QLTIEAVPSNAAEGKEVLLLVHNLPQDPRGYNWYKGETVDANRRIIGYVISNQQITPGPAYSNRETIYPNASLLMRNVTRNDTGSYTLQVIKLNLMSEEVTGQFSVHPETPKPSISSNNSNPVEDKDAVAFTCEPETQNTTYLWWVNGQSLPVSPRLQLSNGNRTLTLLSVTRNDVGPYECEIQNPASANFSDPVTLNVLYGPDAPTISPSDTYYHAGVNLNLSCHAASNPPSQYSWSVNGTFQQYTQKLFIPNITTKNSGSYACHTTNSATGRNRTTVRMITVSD
UniProt P06731, residues 35-685: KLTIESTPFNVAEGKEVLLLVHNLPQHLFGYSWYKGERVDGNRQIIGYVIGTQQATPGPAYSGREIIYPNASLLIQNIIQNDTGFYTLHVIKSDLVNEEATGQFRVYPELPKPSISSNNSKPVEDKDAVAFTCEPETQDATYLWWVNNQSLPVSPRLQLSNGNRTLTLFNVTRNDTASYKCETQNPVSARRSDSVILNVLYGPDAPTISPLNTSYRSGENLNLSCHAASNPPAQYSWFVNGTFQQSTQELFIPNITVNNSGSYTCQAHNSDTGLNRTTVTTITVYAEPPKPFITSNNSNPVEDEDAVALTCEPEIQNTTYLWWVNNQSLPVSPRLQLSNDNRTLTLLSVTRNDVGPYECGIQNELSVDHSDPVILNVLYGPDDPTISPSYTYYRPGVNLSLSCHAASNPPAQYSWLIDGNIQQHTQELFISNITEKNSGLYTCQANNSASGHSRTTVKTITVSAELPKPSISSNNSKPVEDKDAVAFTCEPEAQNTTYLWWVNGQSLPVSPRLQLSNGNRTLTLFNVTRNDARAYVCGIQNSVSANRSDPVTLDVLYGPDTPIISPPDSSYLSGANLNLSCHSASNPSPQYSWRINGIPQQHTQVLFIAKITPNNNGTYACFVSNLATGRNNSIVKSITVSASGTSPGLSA

Assay [1] has as its target CEACAM8 (UniProt P31997). Briefly: Octet (FIG. 79).
Assay [2] has as its target CEACAM5 (UniProt P06731). Briefly: Octet sensorgrams (FIG. 79). For orientation: BLI is a label-free optical method that tracks binding on a fibre tip over time.
Assay [3] concerns the target CEACAM8 (UniProt P31997). Briefly: Octet (FIG. 80).
Assay [4] has as its target CEACAM5 (UniProt P06731). In words: Octet (FIG. 80).

Numbering of substitutions follows the chain as printed. Results are given in words; binding and its absence hold for the method and conditions named. Some results given as binding are weak or reduced against the parent protein; the word gives no strength.

B1: CEA-A_H0L0 (antibody, V domains shown)
VH: EVKLVESGGGLVQPGGSLRLSCATSGFTFTDYYMNWVRQPPGKALEWLGFIGNKANGYTTEYSASVKGRFTISRDKSQSILYLQMNTLRAEDSATYYCTRDRGLRFYFDYWGQGTTLTVSS
VL: QTVLSQSPAILSASPGEKVTMTCRASSSVTYIHWYQQKPGSSPKSWIYATSNLASGVPARFSGSGSGTSYSLTISRVEAEDAATYYCQHWSSKPPTFGGGTKLEIK
As to B1, in the assay with CEACAM8 [1], the binding result is on record as “binds”.

B2: CEA-A_H1L1 (antibody, V domains shown)
VH: EVQLVESGGGLVQPGGSLRLSCATSGFTFTDYYMNWVRQAPGKALEWVGFIGNKANGYTTEYSASVKGRFTISRDKSKSSLYLQMNSLKTEDTAVYYCTRDRGLRFYFDYWGQGTLVTVSS
VL: QTVLTQSPATLSLSPGERATLSCRASSSVTYIHWYQQKPGQSPRSLIYATSNLASGVPARFSGSGSGTDYTLTISSLEPEDFAVYYCQHWSSKPPTFGGGTKVEIK
With B2, the binding result in the assay with CEACAM5 [2] is recorded as “binds”.

B3: CEA-A_H1.7_L2.15 (antibody, V domains shown)
VH: B2 VH with T24A, A44G, G57A
VL: B2 VL with Q1E, T2I, S42A, R44K, V57I, Y70F
In the case of B3, the binding result with CEACAM8 [3] and with CEACAM5 [4] was “binds” each time.

B4: CEA-A_H1L2 (antibody, V domains shown)
VH: B2 VH
VL: B2 VL with Q1E, T2I, S42A, S45L, V57I, Y70F
For the molecule B4, in the assay with CEACAM5 [2], the binding result is “binds”.
